In the supplement of paper PMC10060354, “Discovery of a small molecule ligand of FRS2 that inhibits invasion and tumor growth” (Cellular Oncology, 2022):
Single values are uncertain, as repeats are few or missing.

The chains behind the UniProt entries cited, without tags or fusion partners. Where a name states a change or a piece, a line headed by the entry shows the natural chain unless it says otherwise.
UniProt Q9H8T0: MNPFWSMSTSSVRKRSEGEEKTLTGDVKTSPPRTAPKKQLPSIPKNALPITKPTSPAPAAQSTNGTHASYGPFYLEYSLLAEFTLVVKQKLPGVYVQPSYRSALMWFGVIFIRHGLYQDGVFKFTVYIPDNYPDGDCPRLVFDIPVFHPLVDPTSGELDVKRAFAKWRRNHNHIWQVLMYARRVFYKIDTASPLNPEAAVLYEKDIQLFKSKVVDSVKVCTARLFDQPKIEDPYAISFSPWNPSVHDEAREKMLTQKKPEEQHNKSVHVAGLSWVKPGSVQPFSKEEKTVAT
UniProt Q9UBI6: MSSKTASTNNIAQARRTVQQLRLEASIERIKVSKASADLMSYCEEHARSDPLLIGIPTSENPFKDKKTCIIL
UniProt P48509: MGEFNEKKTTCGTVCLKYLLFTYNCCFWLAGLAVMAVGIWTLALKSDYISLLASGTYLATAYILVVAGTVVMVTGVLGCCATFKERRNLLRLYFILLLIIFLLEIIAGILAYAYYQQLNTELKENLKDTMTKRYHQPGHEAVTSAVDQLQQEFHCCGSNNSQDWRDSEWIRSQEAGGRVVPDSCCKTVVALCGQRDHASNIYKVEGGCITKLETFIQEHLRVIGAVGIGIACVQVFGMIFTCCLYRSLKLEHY
UniProt Q96AE7: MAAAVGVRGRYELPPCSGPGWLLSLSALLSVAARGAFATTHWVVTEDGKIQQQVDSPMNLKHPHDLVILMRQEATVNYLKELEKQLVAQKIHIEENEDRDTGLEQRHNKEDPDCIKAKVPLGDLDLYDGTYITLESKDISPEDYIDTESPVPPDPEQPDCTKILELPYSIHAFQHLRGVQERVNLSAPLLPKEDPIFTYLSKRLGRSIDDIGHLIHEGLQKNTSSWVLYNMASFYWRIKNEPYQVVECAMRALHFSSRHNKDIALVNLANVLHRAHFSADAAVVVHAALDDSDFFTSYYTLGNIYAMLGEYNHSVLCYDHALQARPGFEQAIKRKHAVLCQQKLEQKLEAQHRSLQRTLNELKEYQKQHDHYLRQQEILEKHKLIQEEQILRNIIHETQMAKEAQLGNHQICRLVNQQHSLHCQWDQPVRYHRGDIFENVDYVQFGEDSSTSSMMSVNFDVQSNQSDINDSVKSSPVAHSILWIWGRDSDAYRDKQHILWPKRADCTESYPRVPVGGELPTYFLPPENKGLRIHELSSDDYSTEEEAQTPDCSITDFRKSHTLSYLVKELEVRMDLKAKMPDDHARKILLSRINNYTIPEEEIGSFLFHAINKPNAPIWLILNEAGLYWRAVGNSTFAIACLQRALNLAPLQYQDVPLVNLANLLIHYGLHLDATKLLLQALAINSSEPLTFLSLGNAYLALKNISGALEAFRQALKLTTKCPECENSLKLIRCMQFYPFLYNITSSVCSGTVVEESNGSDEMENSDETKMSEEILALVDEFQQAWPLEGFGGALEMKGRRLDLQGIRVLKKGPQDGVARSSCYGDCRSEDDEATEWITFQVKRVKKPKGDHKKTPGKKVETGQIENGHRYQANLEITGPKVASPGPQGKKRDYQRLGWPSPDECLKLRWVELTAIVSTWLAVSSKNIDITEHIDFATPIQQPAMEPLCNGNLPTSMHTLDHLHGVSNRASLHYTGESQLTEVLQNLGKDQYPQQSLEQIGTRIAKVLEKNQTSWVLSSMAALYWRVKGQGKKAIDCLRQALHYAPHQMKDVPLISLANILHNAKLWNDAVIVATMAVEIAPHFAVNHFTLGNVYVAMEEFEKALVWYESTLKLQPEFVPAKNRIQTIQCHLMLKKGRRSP
UniProt Q9NRX4: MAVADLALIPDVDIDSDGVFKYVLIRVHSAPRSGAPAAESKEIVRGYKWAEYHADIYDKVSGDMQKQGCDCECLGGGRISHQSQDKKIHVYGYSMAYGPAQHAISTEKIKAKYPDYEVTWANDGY
UniProt P04216: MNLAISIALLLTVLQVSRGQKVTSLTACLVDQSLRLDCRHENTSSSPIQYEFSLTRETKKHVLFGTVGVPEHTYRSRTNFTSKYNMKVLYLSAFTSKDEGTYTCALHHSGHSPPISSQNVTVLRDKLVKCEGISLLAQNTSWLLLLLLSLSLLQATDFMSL
UniProt O15040: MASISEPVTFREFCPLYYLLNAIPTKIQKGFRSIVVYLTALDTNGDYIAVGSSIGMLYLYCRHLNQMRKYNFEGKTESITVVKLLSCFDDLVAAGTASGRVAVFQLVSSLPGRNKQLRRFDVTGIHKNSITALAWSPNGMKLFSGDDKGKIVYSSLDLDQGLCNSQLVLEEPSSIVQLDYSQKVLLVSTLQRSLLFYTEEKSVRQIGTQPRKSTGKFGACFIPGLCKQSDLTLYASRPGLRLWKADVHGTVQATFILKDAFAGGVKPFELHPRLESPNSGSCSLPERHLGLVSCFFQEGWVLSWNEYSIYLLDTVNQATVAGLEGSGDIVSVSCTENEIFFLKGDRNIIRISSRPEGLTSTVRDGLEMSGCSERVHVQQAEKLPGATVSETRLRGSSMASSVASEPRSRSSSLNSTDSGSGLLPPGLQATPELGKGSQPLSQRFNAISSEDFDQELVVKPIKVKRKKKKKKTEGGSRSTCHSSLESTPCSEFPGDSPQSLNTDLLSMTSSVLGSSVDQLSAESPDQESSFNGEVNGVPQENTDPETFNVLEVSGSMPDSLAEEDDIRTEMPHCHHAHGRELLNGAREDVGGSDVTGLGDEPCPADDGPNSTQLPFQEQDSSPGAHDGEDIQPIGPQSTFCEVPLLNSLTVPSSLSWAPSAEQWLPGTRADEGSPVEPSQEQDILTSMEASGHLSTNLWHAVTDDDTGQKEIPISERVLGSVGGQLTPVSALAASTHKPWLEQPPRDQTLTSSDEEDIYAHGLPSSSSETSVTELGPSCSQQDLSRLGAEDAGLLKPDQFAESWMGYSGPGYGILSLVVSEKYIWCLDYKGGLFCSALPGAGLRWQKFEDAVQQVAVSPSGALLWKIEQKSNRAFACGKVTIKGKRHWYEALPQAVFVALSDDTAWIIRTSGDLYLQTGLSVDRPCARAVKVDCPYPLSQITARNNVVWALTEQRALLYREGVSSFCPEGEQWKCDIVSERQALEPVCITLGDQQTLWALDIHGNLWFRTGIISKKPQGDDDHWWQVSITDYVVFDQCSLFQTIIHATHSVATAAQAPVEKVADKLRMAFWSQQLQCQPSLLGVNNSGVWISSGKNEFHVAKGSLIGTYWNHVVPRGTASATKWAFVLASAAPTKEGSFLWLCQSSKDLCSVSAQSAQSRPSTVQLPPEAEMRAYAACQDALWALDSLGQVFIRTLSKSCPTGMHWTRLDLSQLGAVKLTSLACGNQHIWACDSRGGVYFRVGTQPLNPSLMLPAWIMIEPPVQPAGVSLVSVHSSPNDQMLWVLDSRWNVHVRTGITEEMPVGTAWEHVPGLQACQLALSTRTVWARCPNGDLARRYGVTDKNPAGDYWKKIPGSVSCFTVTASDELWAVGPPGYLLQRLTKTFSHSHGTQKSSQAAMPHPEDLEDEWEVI
UniProt Q9NVX0: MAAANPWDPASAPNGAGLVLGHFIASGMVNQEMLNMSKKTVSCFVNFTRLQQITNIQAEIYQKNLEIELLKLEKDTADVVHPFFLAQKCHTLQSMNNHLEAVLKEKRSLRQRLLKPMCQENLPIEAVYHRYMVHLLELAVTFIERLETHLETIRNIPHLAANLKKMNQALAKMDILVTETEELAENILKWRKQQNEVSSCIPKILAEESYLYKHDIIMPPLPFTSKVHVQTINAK
UniProt O14579: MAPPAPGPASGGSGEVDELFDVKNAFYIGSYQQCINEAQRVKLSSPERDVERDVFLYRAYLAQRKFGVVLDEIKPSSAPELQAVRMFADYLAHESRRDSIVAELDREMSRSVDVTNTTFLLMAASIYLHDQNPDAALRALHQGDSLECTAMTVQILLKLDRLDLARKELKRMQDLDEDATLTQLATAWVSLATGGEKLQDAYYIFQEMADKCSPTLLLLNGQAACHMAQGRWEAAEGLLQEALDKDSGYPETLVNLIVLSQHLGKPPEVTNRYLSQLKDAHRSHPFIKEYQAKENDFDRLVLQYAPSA
UniProt Q53FT3: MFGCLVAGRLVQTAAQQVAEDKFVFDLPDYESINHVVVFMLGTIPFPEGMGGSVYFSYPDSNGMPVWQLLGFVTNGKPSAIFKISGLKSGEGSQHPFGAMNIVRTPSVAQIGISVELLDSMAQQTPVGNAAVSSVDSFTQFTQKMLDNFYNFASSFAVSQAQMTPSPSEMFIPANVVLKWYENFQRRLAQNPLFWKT
UniProt Q92572: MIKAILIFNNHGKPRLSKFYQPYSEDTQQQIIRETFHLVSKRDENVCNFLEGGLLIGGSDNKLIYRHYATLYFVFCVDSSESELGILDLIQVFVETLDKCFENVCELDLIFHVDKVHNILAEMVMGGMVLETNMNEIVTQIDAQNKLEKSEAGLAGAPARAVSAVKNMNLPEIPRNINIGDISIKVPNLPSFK
UniProt Q9NVV0: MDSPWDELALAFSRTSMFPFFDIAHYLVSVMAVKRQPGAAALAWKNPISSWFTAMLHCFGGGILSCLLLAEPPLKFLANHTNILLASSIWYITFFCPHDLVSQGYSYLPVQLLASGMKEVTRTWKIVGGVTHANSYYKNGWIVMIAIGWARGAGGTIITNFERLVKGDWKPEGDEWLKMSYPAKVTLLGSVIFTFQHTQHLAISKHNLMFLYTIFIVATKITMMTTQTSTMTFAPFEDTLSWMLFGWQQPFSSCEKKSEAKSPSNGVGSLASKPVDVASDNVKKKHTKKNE
UniProt P78382: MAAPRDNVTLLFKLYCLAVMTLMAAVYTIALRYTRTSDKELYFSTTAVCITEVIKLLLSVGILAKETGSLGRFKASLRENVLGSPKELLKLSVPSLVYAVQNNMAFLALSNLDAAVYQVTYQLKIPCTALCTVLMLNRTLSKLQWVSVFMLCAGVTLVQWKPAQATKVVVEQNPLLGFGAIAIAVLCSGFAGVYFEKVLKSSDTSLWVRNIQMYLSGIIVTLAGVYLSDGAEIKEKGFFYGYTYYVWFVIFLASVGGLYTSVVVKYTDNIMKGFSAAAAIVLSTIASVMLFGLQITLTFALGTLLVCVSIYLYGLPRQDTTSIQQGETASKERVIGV
UniProt Q96IY1: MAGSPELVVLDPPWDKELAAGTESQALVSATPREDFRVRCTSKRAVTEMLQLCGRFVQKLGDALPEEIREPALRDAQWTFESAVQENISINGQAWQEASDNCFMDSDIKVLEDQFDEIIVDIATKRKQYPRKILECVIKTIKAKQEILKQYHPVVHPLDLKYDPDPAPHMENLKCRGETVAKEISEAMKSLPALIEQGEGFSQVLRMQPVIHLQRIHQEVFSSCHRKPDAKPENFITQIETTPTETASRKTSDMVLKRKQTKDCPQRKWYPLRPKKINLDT
UniProt P49590: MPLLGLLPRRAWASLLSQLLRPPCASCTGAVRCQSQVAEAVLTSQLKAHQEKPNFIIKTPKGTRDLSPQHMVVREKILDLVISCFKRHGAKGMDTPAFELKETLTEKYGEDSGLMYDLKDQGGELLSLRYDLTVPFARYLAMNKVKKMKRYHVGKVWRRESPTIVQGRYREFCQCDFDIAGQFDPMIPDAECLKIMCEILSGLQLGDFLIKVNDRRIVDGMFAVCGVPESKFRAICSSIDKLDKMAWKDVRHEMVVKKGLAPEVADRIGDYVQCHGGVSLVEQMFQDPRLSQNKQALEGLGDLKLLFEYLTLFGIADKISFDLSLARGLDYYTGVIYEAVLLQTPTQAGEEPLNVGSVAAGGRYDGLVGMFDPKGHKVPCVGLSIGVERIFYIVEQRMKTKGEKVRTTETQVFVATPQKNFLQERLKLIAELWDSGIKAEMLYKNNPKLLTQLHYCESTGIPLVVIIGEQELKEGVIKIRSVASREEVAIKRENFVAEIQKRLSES
UniProt Q8WWV3: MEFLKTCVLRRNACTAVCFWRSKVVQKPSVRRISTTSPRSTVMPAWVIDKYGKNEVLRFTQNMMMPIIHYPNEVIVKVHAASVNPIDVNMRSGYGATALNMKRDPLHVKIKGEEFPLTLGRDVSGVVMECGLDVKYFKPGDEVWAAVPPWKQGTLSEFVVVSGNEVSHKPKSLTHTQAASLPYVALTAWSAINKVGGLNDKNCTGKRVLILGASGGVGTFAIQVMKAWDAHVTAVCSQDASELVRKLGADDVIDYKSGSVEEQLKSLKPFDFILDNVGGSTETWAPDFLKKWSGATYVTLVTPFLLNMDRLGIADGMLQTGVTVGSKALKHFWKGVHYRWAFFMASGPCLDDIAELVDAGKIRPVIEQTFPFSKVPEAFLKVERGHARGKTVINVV
UniProt Q9UJV8: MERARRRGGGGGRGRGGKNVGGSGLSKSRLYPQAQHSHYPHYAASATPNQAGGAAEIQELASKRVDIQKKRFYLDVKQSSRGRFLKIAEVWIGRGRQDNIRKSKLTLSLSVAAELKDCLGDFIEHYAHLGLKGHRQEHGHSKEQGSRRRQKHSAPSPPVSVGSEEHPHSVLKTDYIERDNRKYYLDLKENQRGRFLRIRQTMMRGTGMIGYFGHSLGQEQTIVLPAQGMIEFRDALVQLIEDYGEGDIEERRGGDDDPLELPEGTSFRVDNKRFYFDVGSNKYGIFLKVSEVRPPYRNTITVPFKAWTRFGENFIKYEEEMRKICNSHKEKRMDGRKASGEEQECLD

Compound: [O-][N+](C(C1=C(C(O)=C2)NC(C(C=C3)=CC=C3Cl)C4C1C=CC4)=C2Cl)=O
Assay: melting temperature shift (compound 7 minus DMSO); higher = compound stabilises the protein
Conditions: 10 µM
Description: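 Thermal proteome profiling (TMT mass spectrometry) in intact DAOY medulloblastoma cells or DAOY lysates treated with 10 µM compound 7 or DMSO, heated at 10 temperatures from 40.5 to 73.8 °C for 3 min. Melting curves were fitted with the Bioconductor TPP package, and the melting point difference between compound and vehicle is reported per protein (single curve per condition).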

[1] = system: DAOY cell lysate, treatment time: 20 min, 4 °C
[2] = system: intact DAOY cells, treatment time: 90 min, 37 °C

UniProt Q17R31
melting temperature shift [1]: 1.14 °C

NME3 (UniProt Q13232)
melting temperature shift [1]: -1.66 °C
melting temperature shift [2]: 4.48 °C

UniProt Q9H8T0
melting temperature shift [1]: -0.394 °C
melting temperature shift [2]: 1.13 °C

OBSL1 (UniProt O75147)
melting temperature shift [1]: 0.56 °C

UniProt Q92614
melting temperature shift [1]: -1.51 °C

ZADH2 (UniProt Q8N4Q0)
melting temperature shift [2]: -1.26 °C

HNRNPH2 (UniProt P55795)
melting temperature shift [1]: 0.0131 °C
melting temperature shift [2]: 2.77 °C

GNG12 (UniProt Q9UBI6)
melting temperature shift [1]: 0.975 °C
melting temperature shift [2]: 0.0193 °C

EMD (UniProt P50402)
melting temperature shift [1]: 1.04 °C
melting temperature shift [2]: 0.96 °C

CUL3 (UniProt Q13618)
melting temperature shift [1]: -0.305 °C
melting temperature shift [2]: -0.491 °C

UniProt P55201
melting temperature shift [1]: -3.42 °C

NAGA (UniProt P17050)
melting temperature shift [2]: 0.307 °C

CD151 (UniProt P48509)
melting temperature shift [1]: 2.58 °C

COASY (UniProt Q13057)
melting temperature shift [1]: -1.88 °C
melting temperature shift [2]: -0.521 °C

UniProt O43167
melting temperature shift [1]: 0.423 °C

TTC17 (UniProt Q96AE7)
melting temperature shift [1]: 1.37 °C

SH3D19 (UniProt Q5HYK7)
melting temperature shift [2]: -4.49 °C

UniProt Q15582
melting temperature shift [1]: 0.87 °C
melting temperature shift [2]: 0.833 °C

UniProt Q9Y2R5
melting temperature shift [1]: -0.204 °C
melting temperature shift [2]: -0.976 °C

PHPT1 (UniProt Q9NRX4)
melting temperature shift [1]: -0.929 °C
melting temperature shift [2]: -0.335 °C

UniProt P04216
melting temperature shift [1]: -1.01 °C
melting temperature shift [2]: 4.57 °C

UniProt O15040
melting temperature shift [1]: 0.00921 °C
melting temperature shift [2]: 1.31 °C

POP1 (UniProt Q99575)
melting temperature shift [1]: -0.174 °C
melting temperature shift [2]: -0.389 °C

IRAK4 (UniProt Q9NWZ3)
melting temperature shift [2]: 0.712 °C

MRPL50 (UniProt Q8N5N7)
melting temperature shift [1]: -0.946 °C
melting temperature shift [2]: -1 °C

DDX49 (UniProt Q9Y6V7)
melting temperature shift [1]: 0.151 °C
melting temperature shift [2]: -1.11 °C

UniProt Q16720
melting temperature shift [2]: -1.88 °C

HAUS2 (UniProt Q9NVX0)
melting temperature shift [1]: -0.121 °C
melting temperature shift [2]: 1.14 °C

COPE (UniProt O14579)
melting temperature shift [1]: -0.563 °C
melting temperature shift [2]: 0.00658 °C

CDC40 (UniProt O60508)
melting temperature shift [1]: 1.16 °C
melting temperature shift [2]: 0.734 °C

C11ORF73 (UniProt Q53FT3)
melting temperature shift [1]: -1.22 °C
melting temperature shift [2]: -0.274 °C

AP3S1 (UniProt Q92572)
melting temperature shift [1]: -0.938 °C
melting temperature shift [2]: -0.733 °C

TMEM38B (UniProt Q9NVV0)
melting temperature shift [1]: -1.6 °C
melting temperature shift [2]: -1.29 °C

ME1 (UniProt P48163)
melting temperature shift [1]: -0.606 °C
melting temperature shift [2]: -0.153 °C

EXOSC3 (UniProt Q9NQT5)
melting temperature shift [1]: 0.103 °C
melting temperature shift [2]: 0.572 °C

UniProt Q8N4N8
melting temperature shift [2]: -1.81 °C

UniProt P78382
melting temperature shift [2]: 2.51 °C

NSL1 (UniProt Q96IY1)
melting temperature shift [1]: 1.86 °C
melting temperature shift [2]: 0.973 °C

UniProt Q969X1
melting temperature shift [2]: 6.85 °C

LONP2 (UniProt Q86WA8)
melting temperature shift [1]: 0.919 °C
melting temperature shift [2]: 1.6 °C

TUBB (UniProt P07437)
melting temperature shift [1]: -0.414 °C
melting temperature shift [2]: -0.516 °C

MRPS5 (UniProt P82675)
melting temperature shift [1]: 1.21 °C
melting temperature shift [2]: -1.39 °C

DIEXF (UniProt Q68CQ4)
melting temperature shift [1]: -0.302 °C
melting temperature shift [2]: -0.301 °C

ABCF3 (UniProt Q9NUQ8)
melting temperature shift [1]: -0.253 °C
melting temperature shift [2]: 0.789 °C

IFIT1 (UniProt P09914)
melting temperature shift [1]: 0.598 °C

UniProt P07864
melting temperature shift [2]: -2.13 °C

SLC12A6 (UniProt Q9UHW9)
melting temperature shift [2]: -0.404 °C

UniProt Q02539
melting temperature shift [2]: -0.522 °C

HARS2 (UniProt P49590)
melting temperature shift [1]: 0.0627 °C
melting temperature shift [2]: -0.566 °C

REEP4 (UniProt Q9H6H4)
melting temperature shift [1]: 0.0685 °C

SLC37A4 (UniProt O43826)
melting temperature shift [1]: -0.637 °C

LZIC (UniProt Q8WZA0)
melting temperature shift [1]: -3.4 °C

UniProt P48741
melting temperature shift [2]: 0.586 °C

RTN4IP1 (UniProt Q8WWV3)
melting temperature shift [1]: -0.47 °C

UniProt Q8WYP3
melting temperature shift [1]: -0.857 °C
melting temperature shift [2]: 1.78 °C

UniProt Q9Y2K7
melting temperature shift [1]: 0.541 °C
melting temperature shift [2]: -0.287 °C

TONSL (UniProt Q96HA7)
melting temperature shift [1]: 0.859 °C

POLD1 (UniProt P28340)
melting temperature shift [1]: -0.0745 °C
melting temperature shift [2]: -1.63 °C

UniProt Q9BS16
melting temperature shift [1]: -2.38 °C

MECP2 (UniProt P51608)
melting temperature shift [1]: 0.809 °C
melting temperature shift [2]: -0.744 °C

UniProt Q9UJV8
melting temperature shift [2]: 3.07 °C
